Measurements published in patent publication US9180115B2, “Cyclohexylamines” (Asana Biosciences, LLC, priority 2011, dated 2015).
Some of these results come from one statement about several compounds together.

The compounds below were run on Male Sprague Dawley (SD) rats (assay: In vivo assay of mechanical nociception (rat pinch model, perisciatic injection)). Settings: summary of Table 8; greater than QX-314.

Compound | duration of analgesic effects
CC(C[N+](C)(C)C1CCCCC1)OC(=O)c1ccccc1C(C)C.[I-] (stereo not drawn) [Example 2, N-[2-((2-isopropylbenzoyl)oxy)propyl]-N,N-dimethylcyclohexanaminium iodide] | at least 7 hours
Cc1cc(C)c(C(=O)OC(C)C[N+](C)(C)C2CCCCC2)c(C)c1.[I-] (stereo not drawn) [Example 1, N,N-dimethyl-N-[2-((2,4,6-trimethylbenzoyl)oxy)propyl]cyclohexanaminium iodide] | at least 7 hours
Cc1cccc(C)c1C(=O)OC(C)C[N+](C)(C)C1CCCCC1.[I-] (stereo not drawn) [Example 6, N-[2-((2,6-Dimethylbenzoyl)oxy)propyl]-N,N-dimethylcyclohexanaminium iodide] | at least 7 hours
